The campaign covered roughly 330,000 compounds. About 7,700 (2.3%) were called active. Inconclusive means that the source gave no clear call. Such entries were picked first, then a sample of the others. Calls follow the shape of the dose curve; as a rule, active = well fitted inhibition curve with a large enough effect; inconclusive = small, poorly fitted or top-dose-only effect, or effect the other way; inactive = flat fitted curve, though single readings scatter. Potencies of inconclusive entries are doubtful fits and often do not repeat.
Test: qHTS screen for small molecules that inhibit ELG1-dependent DNA repair in human embryonic kidney (HEK293T) cells expressing luciferase-tagged ELG1; also: nearly all actives have a fitted effect of over 55% in size
Conditions: HEK293T ELG1-luciferase reporter, luminescence, 16 h, DNA damage induced by 5-fluorouridine; series mostly up to 46.1 µM
Procedure, shortened: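 Overnight (16 hr) co-exposure of 2,000 cells/well to 5-fluorouridine and compound at 37 °C preceded detection. Luciferase was quantified via ONE-Glo luminescence; loss of signal denotes inhibition.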
Potency is read from the fitted curve at half-maximal effect.

Row | SMILES | Potency
1 | COc1ccc(CC(=O)OCN2C(=O)c3ccccc3C2=O)cc1OC | inconclusive: 16.4 µM [activator, partial curve]
2 | CC(=O)Nc1ccc(OCC(O)Cn2c3ccccc3c3ccccc32)cc1 (stereo not drawn) | active: 18.4 µM
3 | CCCC(=O)Nc1nnc(S(=O)(=O)N2CCCC2)s1 | inactive
4 | O=C(c1ccc([N+](=O)[O-])cc1[N+](=O)[O-])n1cnc2ccccc21 | inconclusive: 29.1 µM [inhibitor, single point]
5 | CCNC(=O)c1ccc(CSc2ccc(Cl)cc2)cc1 | inconclusive: 20.6 µM [activator, partial curve, poor fit]
6 | CC(C)=CCC/C(C)=C/CNC(=O)C[C@H]1C[C@H](C(=O)N2CCCCC2)[C@@]2(C)c3[nH]c4cc(CCC(=O)N(C)C)ccc4c3CCN2C1=O | inconclusive: 20.6 µM [inhibitor, partial curve, poor fit]
7 | CCN(CC)C(=O)CSc1nnc2nnc3cc(Cl)ccc3n12 | inconclusive: 14.6 µM [inhibitor, partial curve, poor fit]
8 | CCN1CC(CN(C)Cc2nc(-c3ccc(C(F)(F)F)cc3)no2)CC1=O (stereo not drawn) | inconclusive: 10.3 µM [inhibitor, partial curve]
9 | O=C(Nc1ccc(Cc2ccncc2)cc1)c1ccc(N2CCOCC2)c([N+](=O)[O-])c1 | inconclusive: 18.3 µM [inhibitor, single point]
10 | Cc1nc(-c2ccc(NC(=O)C3CC3)cc2)cs1 | inconclusive: 10.3 µM [activator, partial curve]
11 | CS(=O)(=O)c1ccc(Cl)c(NC(=O)COC(=O)c2c(Cl)cccc2Cl)c1 | inconclusive: 2.31 µM [inhibitor, full curve, poor fit]
12 | COc1ccc(S(=O)(=O)N2CCN(C(=O)c3c(C)nn(-c4ccccc4)c3C)CC2)cc1 | inactive
13 | Cc1ccc(NC(=O)c2sccc2C)nc1 | inconclusive: 2.91 µM [activator, partial curve]
14 | COc1cc(/C=C(/C#N)C(=O)Nc2ccccc2)c(Br)cc1OCc1ccc(C(=O)O)cc1 | inconclusive: 16.4 µM [activator, single point]
15 | N/C(COc1ccc(Cl)cc1)=N\NS(=O)(=O)c1ccccc1 | inactive
16 | O=S(=O)(c1ccc(Br)s1)N1CCC2(CC1)OCCO2 | inactive
17 | COc1ccc(NC(=O)c2sccc2-n2cccc2)cc1 | inactive
18 | COC(=O)c1sc(NC(=O)C(C)c2ccccc2)nc1C (stereo not drawn) | inconclusive: 20.6 µM [inhibitor, single point]
19 | CCOc1ccccc1C1CC(c2ccccc2)Nc2nc(N)nn21 (stereo not drawn) | inconclusive: 6.51 µM [inhibitor, partial curve, poor fit]
20 | Cn1ncc([N+](=O)[O-])c1C(=O)Nc1ccc2c(c1)OCCO2 | inconclusive: 20.6 µM [activator, single point]
21 | CN1CCN(NC(=O)CN2C(=O)/C(=C/c3ccccc3Cl)SC2=S)CC1 | inactive
22 | COc1ccc(C2=NN(C(C)=O)C(c3ccccc3)C2)cc1 (stereo not drawn) | inconclusive: 20.6 µM [activator, partial curve]

Row | SMILES | Potency
23 | N=c1nc(N)nc2n1NC(c1ccc(F)cc1)=CS2 | inconclusive: 20.6 µM [activator, partial curve]
24 | CCCN1CCN(CC(=O)NCC(=O)Nc2cccc(C)c2C)CC1 | inactive
25 | CCN(C(=O)COC(=O)c1oc2ccccc2c1C)c1c(N)n(Cc2ccccc2)c(=O)[nH]c1=O | inactive
26 | COC(=O)C1=C(C)NC(C)=C(C(=O)OC)C1/C=C/c1ccccc1 | inconclusive: 13 µM [activator, partial curve]
27 | Cn1c(=O)c2c(nc(CN3CCC(Cc4ccccc4)CC3)n2CCN2CCOCC2)n(C)c1=O | inactive
28 | CCc1nnc(NC(=O)COc2ccc3ccccc3c2)s1 | inactive
29 | COc1cc(/C=C2\SC(=S)N(NC(=O)c3ccc(O)cc3)C2=O)ccc1O | inconclusive: 18.3 µM [activator, single point]
30 | CN1CCN(CC(=O)NC2CCCCC2)CC1 | inconclusive: 16.4 µM [activator, single point]
31 | COc1ccc(OCc2nnc(SCC(=O)N3c4ccccc4Sc4ccc(Cl)cc43)o2)cc1 | inconclusive: 11.2 µM [inhibitor, single point]
32 | CC1Cc2nc(SCC(=O)N3CCN(c4ccccc4)CC3)n(CCc3ccccc3)c(=O)c2S1 (stereo not drawn) | active: 14.6 µM
33 | CCc1ccc(-c2cc(C(F)(F)F)n3nc(C(=O)Nc4c(C)nn(Cc5ccc(F)cc5)c4C)cc3n2)s1 | inconclusive: 0.164 µM [inhibitor, full curve]
34 | COc1ccc(NS(=O)(=O)c2cccc(C(=O)N/N=C(\C)c3cccnc3)c2)cc1 | inactive
35 | COc1cccc(C(=O)N(C)CC(=O)Nc2cccc3ccccc23)c1 | inconclusive: 0.0183 µM [activator, full curve, poor fit]
36 | O=C1CSC(c2ccc(Cl)cc2)N1Nc1nc(N2CCOCC2)nc(N2CCOCC2)n1 (stereo not drawn) | inconclusive: 13 µM [inhibitor, partial curve]
37 | CCOC(=O)c1c(C)n(C)c2ccc(OCC(O)Cn3nc(C)cc3C)cc12 (stereo not drawn) | active: 20.6 µM
38 | CC1(C)Cc2c(C#N)c(N3CCOCC3)nc(Cc3ccccc3)c2CO1 | inconclusive: 20.6 µM [inhibitor, single point]
39 | CCC(C(=O)NCCc1ccccc1OC)n1nc(C)c2c(C)n(-c3ccccc3)nc2c1=O (stereo not drawn) | inconclusive: 14.6 µM [inhibitor, partial curve]
40 | COc1ccc(-c2nnc(SCC(=O)Nc3ccc(Cl)cc3)n2C)cc1 | inconclusive: 0.0116 µM [inhibitor, full curve]
41 | CC1CCN(C(=O)Cn2cnc3c2c(=O)n(C)c(=O)n3C)c2ccccc2S1 (stereo not drawn) | inactive
42 | COc1ccc(Oc2nccc(-c3ccc(F)cc3)c2C#N)cc1 | inconclusive: 20.6 µM [activator, single point]
43 | Cc1cccc(NC(=O)CCCN=C2NS(=O)(=O)c3ccccc32)c1C | inconclusive: 18.3 µM [activator, single point]

4 entries picked at random from those above, as already listed:
Row | SMILES | Potency
43 | Cc1cccc(NC(=O)CCCN=C2NS(=O)(=O)c3ccccc32)c1C | inconclusive: 18.3 µM [activator, single point]
24 | CCCN1CCN(CC(=O)NCC(=O)Nc2cccc(C)c2C)CC1 | inactive
33 | CCc1ccc(-c2cc(C(F)(F)F)n3nc(C(=O)Nc4c(C)nn(Cc5ccc(F)cc5)c4C)cc3n2)s1 | inconclusive: 0.164 µM [inhibitor, full curve]
27 | Cn1c(=O)c2c(nc(CN3CCC(Cc4ccccc4)CC3)n2CCN2CCOCC2)n(C)c1=O | inactive

Source: PubChem BioAssay AID504467 (National Center for Advancing Translational Sciences (NCATS), 2011)
